The list does not hold the whole screen: it is rich in T/C values a quarter to a half above the control, in often repeated tests (any T/C) and in doses without a T/C. Other doses and runs of a compound stand elsewhere. T/C is the treated group as % of the vehicle group. Some entries give survivors of the animals treated and no T/C: the source holds a T/C of zero for them, seemingly a mark for toxic or unscored doses. Some survivor counts are full or nearly so, which does not show that the dose was tolerated: survival well below the control is almost never listed, so the zero probably covers shortened survival too. Survivors were counted at the toxicity check, usually on the fifth day, unless a day is given; later deaths do not show. Schedule codes are those of the source, taken here to give the interval after Q, in days (D) or hours (H), and the number of doses after X. Counts like (3×) stand for listed records that agree. Some entries were tested several times; the results are listed from low to high. For survival time, this PubChem deposit counts one and a half times the control or more as active, and values a quarter to a half above the control carry no call in these data; other NCI protocols may use other cut-offs. Some T/C values carry the count of animals alive at the toxicity check (mostly the fifth day); without a count, all were alive then.
System: P388 leukemia ip, CD2F1 mice, survival T/C
Test: NCI In Vivo Anticancer Drug Screen. Data for tumor model P388 Leukemia (intraperitoneal) in CD2F1 (CDF1) mice
Conditions: T/C endpoint: median survival time, higher T/C = longer survival
[1] = dose: 200.0 mg/kg/injection, schedule: Q01DX009 (ip), vehicle: saline
[2] = dose: 400.0 mg/kg/injection, schedule: Q01DX009 (ip), vehicle: saline with Tween-80
[3] = dose: 200.0 mg/kg/injection, schedule: Q01DX005 (ip), vehicle: saline with Tween-80
[4] = dose: 240.0 mg/kg/injection, schedule: Q01DX005 (ip), vehicle: saline with Tween-80
[5] = dose: 100.0 mg/kg/injection, schedule: Q01DX009 (ip), vehicle: saline with Tween-80
[6] = dose: 200.0 mg/kg/injection, schedule: Q01DX009 (ip), vehicle: saline with Tween-80
[7] = dose: 50.0 mg/kg/injection, schedule: Q01DX005 (ip), vehicle: saline with Tween-80
[8] = dose: 100.0 mg/kg/injection, schedule: Q01DX005 (ip), vehicle: saline with Tween-80

O=c1[nH]c2ccccc2[nH]1
survivor count (dose: 100.0 mg/kg/injection, schedule: Q01DX009 (ip), vehicle: suspension in saline): 6 of 6
survivor count (dose: 200.0 mg/kg/injection, schedule: Q01DX009 (ip), vehicle: Klucel (hydroxypropylcellulose) (HPC)): 6 of 6
survivor count (dose: 400.0 mg/kg/injection, schedule: Q01DX009 (ip), vehicle: Klucel (hydroxypropylcellulose) (HPC)): 4 of 6

CCCc1c2c(c(CCC)c3c1-c1cccc4cccc-3c14)-c1ccccc1C2=O
survivor count (dose: 400.0 mg/kg/injection, schedule: Q04DX003 (ip), vehicle: saline with Tween-80): 1 of 6

C1CCC(C2CCCC[N-]2)[N-]C1.C1CCC(C2CCCC[N-]2)[N-]C1.[Cl][Co][Cl] (stereo not drawn)
survivor count [1]: 0 of 6

O=C1CS/C(=N/C(=O)Nc2ccc(Cl)cc2)N1
survivor count (dose: 100.0 mg/kg/injection, schedule: Q04DX002 (ip), vehicle: Klucel (hydroxypropylcellulose) (HPC)): 6 of 6
survivor count (dose: 200.0 mg/kg/injection, schedule: Q04DX002 (ip), vehicle: Klucel (hydroxypropylcellulose) (HPC)): 6 of 6

COc1cccc2c1C(=O)c1c(O)c3c(c(O)c1C2=O)C[C@@](O)(/C(C)=N/NC(=O)c1ccc(Cl)cc1)C[C@@H]3OC1CC(N)C(O)C(C)O1 (stereo partly drawn)
T/C (dose: 0.25 mg/kg/injection, schedule: Q01DX009 (ip), vehicle: water): 145 % of control
T/C (dose: 0.5 mg/kg/injection, schedule: Q01DX009 (ip), vehicle: water): 139 % of control
T/C (dose: 1.0 mg/kg/injection, schedule: Q01DX009 (ip), vehicle: water): 145 % of control
T/C (dose: 4.0 mg/kg/injection, schedule: Q01DX009 (ip), vehicle: water): 140 % of control
survivor count (dose: 8.0 mg/kg/injection, schedule: Q01DX009 (ip), vehicle: water): 6 of 6
survivor count (dose: 16.0 mg/kg/injection, schedule: Q01DX009 (ip), vehicle: water): 6 of 6 (2×)
survivor count (dose: 40.0 mg/kg/injection, schedule: Q01DX001 (ip), vehicle: water): 6 of 6
survivor count (dose: 80.0 mg/kg/injection, schedule: Q01DX001 (ip), vehicle: water): 2 of 6
survivor count (dose: 160.0 mg/kg/injection, schedule: Q01DX001 (ip), vehicle: water): 0 of 6

O=C(Nc1ccccc1)Nc1nccs1
survivor count [2]: 0 of 6

CCCCCCCCCCC[N+]1(CC)CCCCC1
survivor count (dose: 3.12 mg/kg/injection, schedule: Q01DX009 (ip), vehicle: saline): 2 of 6
survivor count (dose: 6.25 mg/kg/injection, schedule: Q01DX009 (ip), vehicle: saline): 1 of 6
survivor count (dose: 12.5 mg/kg/injection, schedule: Q01DX009 (ip), vehicle: saline): 3 of 6
survivor count (dose: 50.0 mg/kg/injection, schedule: Q01DX009 (ip), vehicle: saline): 0 of 6
survivor count (dose: 100.0 mg/kg/injection, schedule: Q01DX009 (ip), vehicle: saline): 0 of 6
survivor count [1]: 0 of 6

CC1(C)S[C@@H]2C(Cl)=C(Cl)C(=O)N2[C@H]1C(=O)O
survivor count [3]: 1 of 6

N=C(N)c1ccc(N=Nc2c(O)ccc3cc(O)ccc23)cc1
T/C (dose: 25.0 mg/kg/injection, schedule: Q01DX005 (ip), vehicle: Klucel (hydroxypropylcellulose) (HPC), evaluated on day 20): 129 % of control [5 of 6 alive]
T/C (dose: 25.0 mg/kg/injection, schedule: Q01DX005 (ip), vehicle: Klucel (hydroxypropylcellulose) (HPC), evaluated on day 21): 103 % of control
T/C (dose: 25.0 mg/kg/injection, schedule: Q01DX005 (ip), vehicle: Klucel (hydroxypropylcellulose) (HPC), evaluated on day 30): 114 and 119 % of control
T/C (dose: 50.0 mg/kg/injection, schedule: Q01DX005 (ip), vehicle: Klucel (hydroxypropylcellulose) (HPC), evaluated on day 20): 127 % of control
T/C (dose: 50.0 mg/kg/injection, schedule: Q01DX005 (ip), vehicle: Klucel (hydroxypropylcellulose) (HPC), evaluated on day 21): 91 % of control
T/C (dose: 50.0 mg/kg/injection, schedule: Q01DX005 (ip), vehicle: Klucel (hydroxypropylcellulose) (HPC), evaluated on day 30): 112 [5 of 6 alive] and 122 % of control
T/C (dose: 100.0 mg/kg/injection, schedule: Q01DX005 (ip), vehicle: Klucel (hydroxypropylcellulose) (HPC), evaluated on day 20): 146 % of control
T/C (dose: 100.0 mg/kg/injection, schedule: Q01DX005 (ip), vehicle: Klucel (hydroxypropylcellulose) (HPC), evaluated on day 21): 87 % of control
T/C (dose: 100.0 mg/kg/injection, schedule: Q01DX005 (ip), vehicle: Klucel (hydroxypropylcellulose) (HPC), evaluated on day 30): 117 % of control
survivor count (dose: 100.0 mg/kg/injection, schedule: Q01DX005 (ip), vehicle: Klucel (hydroxypropylcellulose) (HPC)): 0 of 6
survivor count (dose: 200.0 mg/kg/injection, schedule: Q01DX005 (ip), vehicle: Klucel (hydroxypropylcellulose) (HPC)): 0 of 6 (3×)

NNC(=O)CC(N)C(=O)O (stereo not drawn)
T/C [1]: 137 % of control
survivor count [2]: 6 of 6

CO[n+]1ccccc1Cc1ccccc1
T/C (dose: 25.0 mg/kg/injection, schedule: Q01DX009 (ip), vehicle: saline): 146 % of control

O=C1C2=C(Nc3cc([N+](=O)[O-])ccc3N2)OC1c1ccc2c(c1)OCO2 (stereo not drawn)
survivor count (dose: 15.0 mg/kg/injection, schedule: Q01DX005 (ip), vehicle: Klucel (hydroxypropylcellulose) (HPC)): 6 of 6
survivor count (dose: 30.0 mg/kg/injection, schedule: Q01DX005 (ip), vehicle: Klucel (hydroxypropylcellulose) (HPC)): 6 of 6 (2×)
T/C (dose: 60.0 mg/kg/injection, schedule: Q01DX005 (ip), vehicle: Klucel (hydroxypropylcellulose) (HPC), evaluated on day 20): 89 % of control
T/C (dose: 60.0 mg/kg/injection, schedule: Q01DX005 (ip), vehicle: Klucel (hydroxypropylcellulose) (HPC), evaluated on day 30): 87 % of control
survivor count (dose: 60.0 mg/kg/injection, schedule: Q01DX005 (ip), vehicle: Klucel (hydroxypropylcellulose) (HPC)): 6 of 6
survivor count (dose: 120.0 mg/kg/injection, schedule: Q01DX005 (ip), vehicle: Klucel (hydroxypropylcellulose) (HPC)): 6 of 6

Cc1nc(C(=O)N=C(N)N)c(N)nc1-c1ccccc1
survivor count (dose: 60.0 mg/kg/injection, schedule: Q01DX005 (ip), vehicle: saline with Tween-80): 5 of 6
survivor count (dose: 120.0 mg/kg/injection, schedule: Q01DX005 (ip), vehicle: saline with Tween-80): 3 of 6
survivor count [4]: 0 of 6

CC1OC(=O)C(=O)/C1=C1/CC(C)(C)N(c2ccccc2)N1 (stereo not drawn)
T/C [5]: 131 % of control
survivor count [6]: 6 of 6

CCOc1c(Cl)cc(Cl)cc1C(c1ccccc1S(=O)(=O)O)c1cc(Cl)cc(Cl)c1OCC
survivor count (dose: 25.0 mg/kg/injection, schedule: Q01DX009 (ip), vehicle: saline with Tween-80): 6 of 6

CC(C)=NNC(=O)C1CCN1Cc1ccccc1 (stereo not drawn)
T/C (dose: 100.0 mg/kg/injection, schedule: Q01DX001 (ip), vehicle: saline with Tween-80): 126 % of control
T/C (dose: 200.0 mg/kg/injection, schedule: Q01DX001 (ip), vehicle: saline with Tween-80): 128 % of control
survivor count (dose: 400.0 mg/kg/injection, schedule: Q01DX001 (ip), vehicle: saline with Tween-80): 2 of 6

O=C1NC(CN2CCCC(O)C2)C(=O)NC1CN1CCCC(O)C1 (stereo not drawn)
survivor count (dose: 200.0 mg/kg/injection, schedule: Q01DX009 (ip), vehicle: water): 5 of 5

C=C(C)[Se]c1ccccc1
survivor count [6]: 1 of 6 and 2 of 6

COC(=O)C(C#N)=C(SC)SC
survivor count [5]: 4 of 6
survivor count [6]: 0 of 6

CCS(=O)(=O)c1ccc(N2C(N)=NC(N)=NC2(C)C)cc1
survivor count [7]: 3 of 5
survivor count [8]: 0 of 5
survivor count [3]: 0 of 5

CC(Oc1ccccc1)C(=O)O (stereo not drawn)
survivor count [6]: 2 of 6
survivor count [2]: 0 of 6

COc1ccc(C(=O)Nc2c(Cl)cccc2Cl)cc1OC
survivor count [4]: 6 of 6

OCC1OC(n2cnc3c(SCc4ccccc4)ncnc32)C(O)C1O (stereo not drawn)
survivor count (dose: 300.0 mg/kg/injection, schedule: Q01DX009 (ip), vehicle: saline with Tween-80): 5 of 6

O=C1C=CC(=Nc2ccc3c(c2)C(=O)c2ccccc2-3)O1
survivor count [3]: 2 of 6

COc1ccc2sc3c(C)ccc(NCCCC4CCCN5CCCCC45)c3c(=O)c2c1 (stereo not drawn)
survivor count [7]: 6 of 6
survivor count [8]: 6 of 6
survivor count [3]: 2 of 6

Reference: PubChem BioAssay AID330 (DTP/NCI, 2004)
